Results as given in the supplement of paper PMC3334620.
Whole data set: some 33,000 sequences, median “E-score (-0.5 to 0.5)” near -0.016, cut for the highest 2% near 0.3. This is one part of the list.

target: T1, Yer184c (UniProt P39961); assay: PBM E-score (8-mer binding enrichment) (E-score (-0.5 to 0.5)); higher = stronger / more preferred TF binding; settings: protein concentration: 100 nM; construct: GST-full length
T1 sequence: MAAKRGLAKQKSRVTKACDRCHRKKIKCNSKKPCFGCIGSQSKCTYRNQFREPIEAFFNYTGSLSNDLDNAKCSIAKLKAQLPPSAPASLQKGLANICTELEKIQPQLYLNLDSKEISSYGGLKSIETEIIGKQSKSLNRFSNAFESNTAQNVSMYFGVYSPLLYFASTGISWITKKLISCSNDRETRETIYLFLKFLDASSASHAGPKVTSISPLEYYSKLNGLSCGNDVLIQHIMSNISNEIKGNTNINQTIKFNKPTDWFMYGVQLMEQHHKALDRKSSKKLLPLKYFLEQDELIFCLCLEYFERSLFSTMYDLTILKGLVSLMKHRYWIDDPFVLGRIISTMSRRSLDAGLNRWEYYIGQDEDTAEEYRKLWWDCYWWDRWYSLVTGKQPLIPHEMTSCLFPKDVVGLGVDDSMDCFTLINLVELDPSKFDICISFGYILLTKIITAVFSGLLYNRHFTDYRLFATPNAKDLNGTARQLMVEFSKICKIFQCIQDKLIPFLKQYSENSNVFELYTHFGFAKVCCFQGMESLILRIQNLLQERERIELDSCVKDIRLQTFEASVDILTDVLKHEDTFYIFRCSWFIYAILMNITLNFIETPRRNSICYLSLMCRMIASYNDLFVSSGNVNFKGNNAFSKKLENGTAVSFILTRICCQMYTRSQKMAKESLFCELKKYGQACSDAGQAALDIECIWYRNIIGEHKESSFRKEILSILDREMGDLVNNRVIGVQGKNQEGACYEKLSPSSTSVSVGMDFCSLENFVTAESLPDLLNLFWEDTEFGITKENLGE
Outline: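 Bound GST-tagged yeast transcription factors, applied at about 100-200 nM to double-stranded universal all-10-mer Agilent arrays, were detected with fluorescent anti-GST. Scans were normalised with masliner. A modified Wilcoxon-Mann-Whitney statistic, the E-score, was assigned to each ungapped eight-base word pooled with its reverse complement by the Universal PBM Analysis Suite.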

Sequence | PBM E-score
AGAGTGCG | -0.0685
GCCCGTAA | -0.00023
CAGAGAAG | 0.0382
GGAATAGA | 0.135
GAAGTTGA | 0.0512
AAGGGTAT | -0.157
CGACCGAA | 0.273
AGAGTAAT | 0.234
TCATTGCA | 0.0521
TCTCAACA | 0.104
GAACTCGC | 0.118
CCCGCGCC | 0.00518
AATTAGCG | -0.00252
AGAACGTA | -0.129
AGTAGCCG | 0.198
ACTTCCAG | -0.112
CGCCCAAC | -0.12
CAATGCGA | -0.0882
ACCGCTGG | -0.135
AGGGACAG | -0.363
CCACCCCG | -0.116
CCTCAAAC | 0.0519
ACTCTTCT | -0.0645
GAAGAGGA | -0.185
CTAGCTCC | -0.123

A few values from the list:
Entry for AGAGTAAT under PBM E-score: 0.234
Entry for CCTCAAAC under PBM E-score: 0.0519
Entry for CAATGCGA under PBM E-score: -0.0882
Entry for AGTAGCCG under PBM E-score: 0.198

(listing goes on)

Sequence | PBM E-score
AGGTCCGA | 0.197
ATTCTAAG | 0.0463
AATGTCTC | -0.06
AACAATGA | 0.0995
CCCTCCCC | -0.127
GAGATTGA | -0.0286
CATTCCCA | -0.185
ACCTGGAA | 0.0875
ATGCCGCA | 0.124
AGACGACA | -0.107
ACCATAAG | -0.177
ATATCTGA | 0.131
TTACCTAA | 0.126
GAATATTA | 0.146
GGGCGTAC | -0.105
ACCATTTA | 0.137
CTGCGGTA | 0.0914
CCAATGCG | -0.21
GTTGAAGA | 0.0149
CAGACGTA | 0.00462
GACCAAGA | 0.0101
TTCACAAA | 0.204
CAGGGATA | -0.0856
AAACCGCC | 0.147
CCCAGCTA | -0.25

Sequence | PBM E-score
GCTCATCC | -0.14
CGCACGTA | -0.227
ACGCCCCC | -0.165
AGTGCCTC | -0.128
CGCGATAG | -0.0308
AAACGCAC | -0.0781
GAGAACTC | -0.193
AACAGCCC | 0.0219
ATCGTACG | -0.0735
GATCTCAC | -0.021
CCGACTAA | 0.167
ATCTATGC | -0.138
TCTCGTCA | 0.0951
GACACTAA | 0.0304
AAGATCAA | 0.0888
AATAGCCA | -0.0467
GTTGCAAA | 0.228
AATTAATC | 0.138
CTGCATGC | 0.0562
AGGGTCTC | -0.314
CTCCGCGC | 0.112
GAGGCAAC | -0.152
TCCACCGA | 0.0324
CGCTGCTA | -0.23
AAGGGATG | -0.212

Sequence | PBM E-score
GTTGGTAA | 0.0934
ACGTCCAA | -0.0977
CGTGGAGA | -0.166
GGCTTAAC | -0.0348
ACGATTCG | 0.0707
ATGAGCGG | -0.0669
CCCAGGTA | -0.31
CCCCTCGA | -0.147
CAATGGGC | -0.236
GCTTATAC | -0.0191
AGAGAGTA | -0.0738
TCTGGAAA | 0.0756
ATCAGACG | 0.0852
ACTGCGGG | -0.00285
TGGAGCAA | 0.0711
AGAATAGC | -0.0261
AGTCGTAC | -0.159
ATCCTCGG | 0.218
ACGAGGGG | -0.301
GCGTTGAC | -0.15
CCCAATAA | -0.131
TACTGCTA | -0.039
ATCTGCTC | -0.0905
AAACACAT | 0.049
AGGGCCCT | -0.383

Sequence | PBM E-score
GCAGGTTA | -0.16
AAATGACT | -0.0279
AAACGCGC | -0.0626
CGTGTGCA | -0.144
CACCCGTC | -0.155
CAAGTGGG | -0.0251
CAACGGCC | 0.0623
ACTCACTG | -0.0576
AAGTGTAA | -0.244
AACAACAA | 0.165
AAAGTCAT | -0.0361
AGCCATTG | -0.0138
AGATCCAC | 0.0454
GAGCGGAA | 0.295
AATGTGAC | -0.0966
CACGAGGG | -0.224
AGGACTAA | 0.102
ACAGGTAG | -0.296
AGCAAGGA | -0.173
AAGGTCTA | -0.131
ATTGAAGC | 0.0798
TATTTGAA | 0.207
CCAACACA | -0.0185
AATCGCAT | 0.00749
ACTCATAC | 0.129

Sequence | PBM E-score
CTTAGACA | -0.162
CCAGCGGC | 0.0656
CTAGTAGC | 0.0113
GCCCAGAA | -0.0744
CCTTAGCG | -0.121
GCCTTGAC | -0.0539
AAAAAGGT | 0.0261
AAGTAACA | 0.101
CCGCTGAA | 0.119
CCTGCTCA | -0.0858
ACTACGAG | -0.166
CACTTTTA | 0.0548
AATGCGTG | -0.109
AATCCGGA | 0.401
CGCCTCAA | -0.0432
CGTGTGTA | 0.0942
GTCGAGTA | 0.0216
AACGCGAA | 0.0123
GTTAGACA | 0.222
ACGCCGCC | -0.0562
AGTGAGTA | 0.232
GCGCGCAC | 0.151
CGGTGACG | -0.0568
CTCATCTC | -0.0289
ATAACTAT | 0.0484

Sequence | PBM E-score
GGCATGAC | -0.199
TACTAATA | 0.16
TGCGCGAA | 0.154
TCCATCGA | -0.0504
GGTAGAGA | -0.189
AAATCGCG | 0.0706
CAATACCA | -0.03
TCTACTAA | 0.178
AACCTCAA | -0.0339
CATATGCG | -0.127
GGCTCTTA | -0.0325
ATTTACCG | 0.244
GTCCGGTA | 0.206
CGTATTTC | 0.00818
GATTCGAC | -0.112
ATGGATCC | 0.0253
TCGGAAGA | 0.255
ATGGGGTA | -0.0679
GTACCAAA | 0.102
GGGTTGTA | -0.0942
CGAGGACG | 0.0225
GCGGCGAA | 0.27

Exported in markdown: entries from further up.

| Sequence | PBM E-score |
| --- | --- |
| CGTGGAGA | -0.166 |
| AAGTAACA | 0.101 |
| CTCATCTC | -0.0289 |
